PMC9832115
These are yes or no findings as the source states them, for the method shown. In cells and extracts the contact can be indirect. Some results given as binding are weak or reduced against the parent protein; the word gives no strength. Blank lines part the entries; values can stand above or below the binder they belong to.

Molecular target: T1, DRC3 (mouse (endogenous in testis)) (UniProt Q9D5E4)
T1 sequence: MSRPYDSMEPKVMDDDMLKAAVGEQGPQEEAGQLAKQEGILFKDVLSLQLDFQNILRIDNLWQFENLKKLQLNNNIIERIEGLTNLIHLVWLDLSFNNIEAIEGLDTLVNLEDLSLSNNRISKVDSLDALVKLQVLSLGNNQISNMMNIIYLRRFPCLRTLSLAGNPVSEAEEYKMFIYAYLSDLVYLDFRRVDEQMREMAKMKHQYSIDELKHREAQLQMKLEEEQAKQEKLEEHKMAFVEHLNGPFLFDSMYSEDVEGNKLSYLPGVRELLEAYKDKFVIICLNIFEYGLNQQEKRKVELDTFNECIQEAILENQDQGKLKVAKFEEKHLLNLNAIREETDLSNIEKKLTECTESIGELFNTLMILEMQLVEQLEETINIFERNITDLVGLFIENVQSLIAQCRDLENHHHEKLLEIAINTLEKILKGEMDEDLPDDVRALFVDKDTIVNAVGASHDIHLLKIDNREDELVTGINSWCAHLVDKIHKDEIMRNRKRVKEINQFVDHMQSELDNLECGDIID
Assay: co-IP; co-immunoprecipitation in vivo, testicular protein from wild-type mice

binding: binds
B1: IFT74 (protein, UniProt Q8BKE9 1-600)
chain: MASNHKSSAPRPISRGGIGLTGRPPSGIRPPSGNVRVATAMPPTTARPGSRGGPLGTGGVLSSQIKVADRPVTQQGLSGMKTGMKGPQRQILDKSYYLGLLRSKISELTTEINKLQKEIEMYNQENSVYLSYEKRAETLAVEIKDFQGQLADYNMLVDKLNTNTEMEEVMSDYNMLKAQNDRETQSMDVIFTERQAKEKQIRSVEEEVEQEKQAADGIIKNMSPEKQVKYIEMKTTNEKLLQELDTLQQQLDSLNMKKESLETEIAHSQVKQEAVLLYEKLYELESHRDQMIAEDKSMGSPMEERERLLKQVKEDNQEIASMERQLTDIKEKINQFSEEIRQLDMDLEEHQGEMNQKYKELKKREENMDAFIETFEETKNQELERKAQIEASIITLLEHCSRNINRMKQISSITNQELKMMQDDLSFKSTEMQKSQTTARNLTSDSQRLQLDLQKMELLESKMTEEQQSLKNKIKQMTADLETYSDLAALKSSAEEKKKKLHQERTVLSTHRNAFKKIMEKLTSDYDTLKRQLQDNETHAQLTNLERKWQHLEQNNFVMKEFIATKSQESDYQPVIKNVMKQIAEYNKTIMDALHNASRS

binding: binds
B2: IFT81 (protein, UniProt O35594 1-676)
chain: MSDQIKFIVDSLNKEPFKKNYNLITFDSLGPMQLLQVLNDVLAEIDPKQDVDIREEMPEQTAKRMLNLLGILKYKPPGNATDMSTFRQGLVIGSKPVIYPVLHWLLQRSNELKKRAYLARFLIKLEVPSEFLQDETVADTNKQYEELMEAFKTLHKECEQLKTSGFSTAEIRRDISAMEEEKDQLMKRVERLKKRVETVQNHQRMLKIARQLRVEKEREEFLAQQKQEQKNQLFHAVQRLQRVQNQLKSMRHAAADAKPESLMKRLEEEIKFNSYMVTEKFPKELESKKKELHFLQKVVSEPAMGHSDLLELETKVNEVNTEINQLIEKKMMRNEPIEGKLSLYRQQASIISRKKEAKAEELQETKEKLASLEREVLVKTNQTREFDGTEVLKGDEFKRYVSKLRSKSTVFKKKHQIIAEFKAEFGLLQRTEELLKQRQETIQHQLRTIEEKKGISGYSYTQEELERVSALKSEVDEMKGRTLDDMSEMVKKLNSLVSEKKSALAPVIKELRQLRQKCQELTQECDEKKAQYDSCAAGLESNRSKLEQEVRGLREECLQEESKYHYTNCMIKNLEVELRRATDEMKAYVSSDQQEKRKAIREQYTKNITEQENLGKKLREKQKAVRESHGPNMKQAKMWRDLEQLMECKKQCFLKQQSPASIGQVIQEGGEDRLVL
